Results deposited as PubChem BioAssay AID1508597 (Cure First, 2020)
The whole screen tested about 2,100 reagents; shown is an unselected part. 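Calls flag viability under 80% in either arm, not effects specific to rucaparib; the reference for percent is not stated.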 Not stated in the record: the 100% reference.

Screen: 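Knock-downs altering ovarian cancer cell survival with or without PARP inhibitor rucaparib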 (primary screen)
System: human ovarian carcinoma lines grown from tumours: OCI-P5x (papillary serous) and OCI-C5x (clear cell)
Knock-down reagent: siRNA pool against human genes, 1.25 pmol siRNA per well
Timing: 72 h or 96 h, depending on the cell culture
Treatment: rucaparib 20 µM (about IC30) or vehicle, present until read-out
Detection: 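ATP luminescence measured at 72 or 96 h according to the culture, then normalised and expressed as percent viability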
Reading the numbers: viability, normalised: higher = more viable cells remaining
Call rule: 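a well counts as a hit if its normalised viability is under 80 percent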
Calls: active = viability under 80%; inactive = viability 80% or more

gene	rucaparib or vehicle	cell line	technical replicate	viability, normalised (%)	activity call
PRPS2	Rucaparib	OCI-C5x (clear cell)	1	47.7	active
PRPS2	Rucaparib	OCI-C5x (clear cell)	2	66	active
PRPS2	Rucaparib	OCI-C5x (clear cell)	3	62.4	active
PRPS2	Rucaparib	OCI-P5x (serous)	1	83.5	inactive
PRPS2	Rucaparib	OCI-P5x (serous)	2	80.1	inactive
PRPS2	Rucaparib	OCI-P5x (serous)	3	65.7	active
PRPS2	Vehicle	OCI-C5x (clear cell)	1	57.1	active
PRPS2	Vehicle	OCI-C5x (clear cell)	2	61.9	active
PRPS2	Vehicle	OCI-C5x (clear cell)	3	65.8	active
PRPS2	Vehicle	OCI-P5x (serous)	1	85.1	inactive
PRPS2	Vehicle	OCI-P5x (serous)	2	91.1	inactive
PRPS2	Vehicle	OCI-P5x (serous)	3	92	inactive
SUMO1	Rucaparib	OCI-C5x (clear cell)	1	48.5	active
SUMO1	Rucaparib	OCI-C5x (clear cell)	2	38.2	active
SUMO1	Rucaparib	OCI-C5x (clear cell)	3	44.2	active
SUMO1	Rucaparib	OCI-P5x (serous)	1	62.9	active
SUMO1	Rucaparib	OCI-P5x (serous)	2	66.1	active
SUMO1	Rucaparib	OCI-P5x (serous)	3	48.6	active
SUMO1	Vehicle	OCI-C5x (clear cell)	1	41.2	active
SUMO1	Vehicle	OCI-C5x (clear cell)	2	70.3	active
SUMO1	Vehicle	OCI-C5x (clear cell)	3	31.6	active
SUMO1	Vehicle	OCI-P5x (serous)	1	71.9	active
SUMO1	Vehicle	OCI-P5x (serous)	2	61.7	active
SUMO1	Vehicle	OCI-P5x (serous)	3	47.2	active
TSPYL4	Rucaparib	OCI-C5x (clear cell)	1	57.9	active
TSPYL4	Rucaparib	OCI-C5x (clear cell)	2	48.9	active
TSPYL4	Rucaparib	OCI-C5x (clear cell)	3	31.9	active
TSPYL4	Rucaparib	OCI-P5x (serous)	1	60	active
TSPYL4	Rucaparib	OCI-P5x (serous)	2	35	active
TSPYL4	Rucaparib	OCI-P5x (serous)	3	59.6	active
TSPYL4	Vehicle	OCI-C5x (clear cell)	1	41.7	active
TSPYL4	Vehicle	OCI-C5x (clear cell)	2	42.5	active
TSPYL4	Vehicle	OCI-C5x (clear cell)	3	47	active
TSPYL4	Vehicle	OCI-P5x (serous)	1	66.4	active
TSPYL4	Vehicle	OCI-P5x (serous)	2	87.7	inactive
TSPYL4	Vehicle	OCI-P5x (serous)	3	73	active

4 entries from above, arranged by “viability, normalised (%)”, lowest first:
gene	rucaparib or vehicle	cell line	technical replicate	viability, normalised (%)	activity call
SUMO1	Vehicle	OCI-C5x (clear cell)	1	41.2	active
SUMO1	Rucaparib	OCI-P5x (serous)	3	48.6	active
SUMO1	Rucaparib	OCI-P5x (serous)	1	62.9	active
SUMO1	Rucaparib	OCI-P5x (serous)	2	66.1	active

The listing continues:
gene	rucaparib or vehicle	cell line	technical replicate	viability, normalised (%)	activity call
MYB	Rucaparib	OCI-C5x (clear cell)	1	15.5	active
MYB	Rucaparib	OCI-C5x (clear cell)	2	22.4	active
MYB	Rucaparib	OCI-C5x (clear cell)	3	25.9	active
MYB	Rucaparib	OCI-P5x (serous)	1	47.4	active
MYB	Rucaparib	OCI-P5x (serous)	2	60.3	active
MYB	Rucaparib	OCI-P5x (serous)	3	62.2	active
MYB	Vehicle	OCI-C5x (clear cell)	1	24.5	active
MYB	Vehicle	OCI-C5x (clear cell)	2	30.6	active
MYB	Vehicle	OCI-C5x (clear cell)	3	31.8	active
MYB	Vehicle	OCI-P5x (serous)	1	50.2	active
MYB	Vehicle	OCI-P5x (serous)	2	58.6	active
MYB	Vehicle	OCI-P5x (serous)	3	70.1	active
DDX10	Rucaparib	OCI-C5x (clear cell)	1	55.3	active
DDX10	Rucaparib	OCI-C5x (clear cell)	2	54.2	active
DDX10	Rucaparib	OCI-C5x (clear cell)	3	40.1	active
DDX10	Rucaparib	OCI-P5x (serous)	1	47.6	active
DDX10	Rucaparib	OCI-P5x (serous)	2	45.2	active
DDX10	Rucaparib	OCI-P5x (serous)	3	62.6	active
DDX10	Vehicle	OCI-C5x (clear cell)	1	33.9	active
DDX10	Vehicle	OCI-C5x (clear cell)	2	44	active
DDX10	Vehicle	OCI-C5x (clear cell)	3	50	active
DDX10	Vehicle	OCI-P5x (serous)	1	45.2	active
DDX10	Vehicle	OCI-P5x (serous)	2	63.3	active
DDX10	Vehicle	OCI-P5x (serous)	3	59.5	active
